This is an account of results in article PMC13572447.

Sequences of proteins named here, by UniProt entry; tags and fusion partners are left off.
UniProt P45974: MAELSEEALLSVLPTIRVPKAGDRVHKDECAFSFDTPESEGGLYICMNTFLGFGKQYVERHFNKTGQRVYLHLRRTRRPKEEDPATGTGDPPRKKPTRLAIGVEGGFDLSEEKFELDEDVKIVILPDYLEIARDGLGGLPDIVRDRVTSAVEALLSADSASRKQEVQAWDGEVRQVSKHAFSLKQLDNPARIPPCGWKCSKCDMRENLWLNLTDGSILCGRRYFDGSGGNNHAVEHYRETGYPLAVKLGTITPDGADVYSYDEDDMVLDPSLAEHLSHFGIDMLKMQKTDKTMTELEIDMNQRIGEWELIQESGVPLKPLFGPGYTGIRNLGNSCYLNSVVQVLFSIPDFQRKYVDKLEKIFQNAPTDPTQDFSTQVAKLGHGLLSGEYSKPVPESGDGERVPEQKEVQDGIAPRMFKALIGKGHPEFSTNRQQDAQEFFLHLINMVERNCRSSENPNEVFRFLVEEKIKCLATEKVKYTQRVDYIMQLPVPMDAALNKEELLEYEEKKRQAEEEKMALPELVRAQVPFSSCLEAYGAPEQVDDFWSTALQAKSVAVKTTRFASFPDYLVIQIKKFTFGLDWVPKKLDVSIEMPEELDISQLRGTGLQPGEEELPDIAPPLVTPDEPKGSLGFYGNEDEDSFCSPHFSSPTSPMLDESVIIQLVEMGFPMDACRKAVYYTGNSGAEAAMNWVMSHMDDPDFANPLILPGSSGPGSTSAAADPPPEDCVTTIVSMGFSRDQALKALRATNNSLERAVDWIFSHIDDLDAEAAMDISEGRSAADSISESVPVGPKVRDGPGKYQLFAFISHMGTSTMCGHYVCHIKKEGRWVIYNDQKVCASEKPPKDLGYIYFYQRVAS

These are yes or no findings as the source states them, for the method shown. Binding seen in cells or lysates may run through a third protein. Here binding means that the protein was enriched with, or labelled near, the bait; the list need not be complete. Where a sequence is shown, tags or fusion partners need not be part of it.

This assay concerns the target T1, HA-SDE2UBL-PA activity-based probe (human) (UniProt Q6IQ49).
T1 sequence (chain, C-terminal propargylamide, Gly77 replaced with a propargyl electrophilic warhead): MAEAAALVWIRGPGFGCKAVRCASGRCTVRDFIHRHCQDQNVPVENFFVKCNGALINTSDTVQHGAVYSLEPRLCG
The assay is described as follows: affinity purification with mass spectrometry; HEK293 lysate with 1 µM HA-SDE2UBL-PA, anti-HA immunoprecipitation, trypsin digestion, DIA proteomics against a no-probe control, triplicate; only the target purified.

As for “endogenous USP5 of HEK293 cell lysate (from UniProt P45974 1-858) (enzyme)”, the binding entry was “binds”.
